# Primary screen of a compound library

Source: ChEMBL document CHEMBL3988442, “University of Dundee, Small-Polar-MMV Screening Library” (2021).

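Whole-cell assay for inhibitors of Mycobacterium tuberculosis growth, labelled Cornell in the record; the read-out is not stated. The concentration is filed as 10 mM, unlikely as a test dose, so the dose is not known. The record gives no direction; compounds strong in two other growth screens of this library score well above the rest, so higher reads as stronger inhibition. Of about 53,000 compounds tested this way, about 900 (1.7%) reached 50% or more in at least one test.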

The filed quantity is “Percent Effect” (%).
How 0% and 100% were set is not recorded. Most values in the screen are low, and negative values occur.
Compounds were drawn at random from those tested, without regard to their results.

- CCOC(=O)N1CCc2ccccc2C12CCNCC2.Cl : 3.543%
- Cn1cc(C(=O)N2CCCC2c2[nH]ncc2C(N)=O)cn1 (stereo not shown) : -10.67%
- CC(Cn1cnc2cn(C)nc2c1=O)Oc1cccnc1 (stereo not shown) : -15.29%
- COc1ccc(CNc2ncnc3c2NC(=O)CN3)cc1 : 23.95%
- [H][C@]12CC[C@]([H])(CN(C(=O)N(C)C)C1)N(C(=O)c1cccc(N(C)C)c1)C2 : -6.25%
- CCc1nnc(CN(CC)C(=O)C2CC(=O)N(Cc3cccnc3)C2)o1 (stereo not shown) : 22.85%
- c1ccc2cc(OCCCN3CCn4c(nnc4C4CC4)C3)ccc2c1 : 5.68%
- CCN(CCn1cccn1)C(=O)CN1C(=O)OC[C@@H]1c1ccccc1 : 10.42%
- CC(C)(O)CCc1cccc(C(=O)N2CCC3(CCO3)CC2)c1 : -16.51%
- Cc1occc(=O)c1OCc1noc(C(=O)NCC(C)C)n1 : 2.975%
- CS(=O)(=O)NCC1CCCN(C(=O)Nc2cccc3ccccc23)C1 (stereo not shown) : 36.69%
- CC(=O)C1(c2ccccc2)CCN(C(=O)CC2CNCCO2)CC1 (stereo not shown) : 30.19%
- COc1ccccc1[C@@H]1CN(Cc2ccc3nsnc3c2)C[C@H]1C(=O)O : -13.39%
- COc1cccc(CCC2CCCN(C(=O)c3ccc(OC)o3)C2)c1 (stereo not shown) : 67.76%
- [H][C@@]12OCCN(Cc3ccc(F)cc3)[C@@]1([H])CC[C@H]2OCC : 17.25%
- CCCc1noc(C[S+]([O-])CC(=O)NCc2ccccc2)n1 (stereo not shown) : -17.83%
- O=C(O)C(F)(F)F.[H][C@]12CN(Cc3ccccc3OC)C[C@@]1([H])OCCN(C(C)=O)C2 : 13.64%
- Cc1nc(N)cc(N2CCCC(COc3cccc(F)c3)C2)n1 (stereo not shown) : 43.67%
- O=C(Cc1cccnc1)N1CCC2(CCN(C3CCOC3)CC2)C1 (stereo not shown) : -81.96%
- Cc1nc(CN2C(=O)COC3(CCN(CC4CC4)CC3)C2C)cs1.O=C(O)C(F)(F)F (stereo not shown) : 6.692%
- CCOCC(O)CN1CCN(C(=O)c2ccsc2)CC1 (stereo not shown) : 106.2%
- CC(C)[C@H]1CN(Cc2c[nH]nn2)C[C@@H]1NC(=O)C1CCOCC1 : -6.658%
- COCC1CN(C(=O)Nc2cc(Cl)ccc2F)CCO1 (stereo not shown) : -9.759%
- CC(C)N1CC2(CCC1=O)CCN(c1ccnc3ccccc13)CC2 : 24.22%
- Cc1c(OCC(=O)NCc2ccccc2)c(=O)ccn1C : 2.776%
- CSc1nccn1-c1cccc(C(=O)NCCN2CCS(=O)(=O)CC2)c1 : -6.28%
- O=C(O)C(F)(F)F.[H][C@@]12CN(C(=O)NCc3ccccc3)CCC[C@]1(C(=O)O)CN(C(C)C)C2 : 2.946%
- Cc1ccc2nnc(C(=O)NCCCn3cccn3)nc2c1 : 46.84%
- Cc1ccn(-c2ccccc2NCc2cccnc2)n1 : -17.76%
- Cn1nc(COCC2CC2)c2c1CN(C(=O)c1ccno1)CC2.O=C(O)C(F)(F)F : 1.534%
- O=C(O)C(F)(F)F.O=C(O)C(F)(F)F.O=C(c1cccnc1)N1CCC2(CC1)COC(COc1ccccn1)C2 (stereo not shown) : 22.9%
- CN(Cc1nnc(C2CC2)n1C)C1CCN(CCc2cccs2)C1 (stereo not shown) : 7.555%
- CCS(=O)(=O)c1ccc2oc([C@H]3CCN(Cc4cccnc4)C3)nc2c1 : -43.2%
- CCN(C(=O)CS(=O)(=O)Cc1cc(Cl)c2c(c1)OCCCO2)C1CC1 : 2.675%
- CC(NCc1ccncc1)c1ccc(N2CCN(C)CC2)c(F)c1.Cl (stereo not shown) : 8.58%
- Cc1nn(C)c2nc(N(C)CCN(C)C3CCCC3)sc12 : 37.55%
- CC1(C)CNC(=O)c2nc(CCCN3CCCC3)[nH]c2C1 : 20.79%
- [H][C@@]12CCN(Cc3scnc3C)C[C@]1(C(=O)N1CCCC1)CCO2 : -16.47%
- CC(C)c1ccc(CCC(=O)N(C)C2CCN(C)C2=O)cc1 (stereo not shown) : 8.053%
- Clc1cncc(N2CCN(Cc3ccon3)CC2)n1 : 25.35%
- COCCN1CCC2(COCc3c(C)nc(N(C)C)nc32)C1 (stereo not shown) : 13.92%

The first 3 entries again:

Compound	percent effect
CCOC(=O)N1CCc2ccccc2C12CCNCC2.Cl	3.543%
Cn1cc(C(=O)N2CCCC2c2[nH]ncc2C(N)=O)cn1 (stereo not shown)	-10.67%
CC(Cn1cnc2cn(C)nc2c1=O)Oc1cccnc1 (stereo not shown)	-15.29%